Assay: general procedure: solution-phase peptide synthesis; DCC or DIC with DMAP; cyclisation with 1-methyl-2-chloropyridinium iodide and tr
[1] = late stage modification step, run 1
[2] = late stage modification step, run 2

Substance | step yield (coupling step) | step yield (late stage modification step) | also measured
BOC-L-MeLeu-D-Lac-L-MeLeu-D-Lac-L-MeLeu-D-Lac-L-Pip-D-Lac-OBn | 41% yield |  | 
BOC-L-MeLeu-D-Lac-L-MeLeu-D-Lac-L-MeLeu-D-Lac-L-Tic-D-Lac-OBn | 75% yield |  | 
BOC-L-MeLeu-D-Lac-L-MeLeu-D-Lac-L-MeMeu-D-Lac-OBn | 68% yield |  | 
BOC-L-MeLeu-D-Lac-L-MeLeu-D-Lac-L-MeMeu-D-Lac-OH |  | 95% | 
BOC-L-MeLeu-D-Lac-L-MeLeu-D-Lac-OBn | 88% yield |  | 
BOC-L-MeLeu-D-Lac-L-MeLeu-D-Lac-OH |  | 96% | 
BOC-L-MeLeu-D-Lac-L-MeLeu-D-PhLac-OBn | 58% yield |  | 
BOC-L-MeLeu-D-PhLac-L-MeLeu-D-Lac-L-MeLeu-D-PhLac-L-Pip-D-Lac-OBn | 24% yield |  | 
BOC-L-MeLeu-D-PhLac-L-MeLeu-D-Lac-L-MeLeu-D-PhLac-L-Tic-D-Lac-OBn | 24% yield |  | 
BOC-L-MeLeu-D-PhLac-L-MeLeu-D-Lac-L-MeMeu-D-PhLac-OBn | 52% yield |  | 
BOC-L-MeLeu-D-PhLac-L-MeLeu-D-Lac-L-MeMeu-D-PhLac-OH |  | 81% | 
BOC-L-MeLeu-D-PhLac-L-MeLeu-D-Lac-OBn | 57% |  | 
BOC-L-MeLeu-D-PhLac-L-MeLeu-D-Lac-OH |  | 96% | 
BOC-L-Pro-D-Lac-L-MeLeu-D-PhLac-L-MeLeu-D-Lac-L-MeLeu-D-PhLac-OBn |  |  | step yield (coupling step, run 1): 61% yield; step yield (coupling step, run 2): 48%
BOC-L-Pro-D-Lac-L-MeLeu-D-PhLac-OBn | 82% yield |  | 
BOC-L-Pro-D-Lac-L-MeLeu-D-PhLac-OH |  | 98% | 
L-MeLeu -D-Lac-L-MeLeu-D-Lac-L-MeLeu-D-Lac-L-Tic-D-Lac-OH |  | 80% | 
L-MeLeu-D-Lac-L-MeLeu-D-Lac-L-MeLeu-D-Lac-L-Pip-D-Lac-OBn |  | 83% yield | 
L-MeLeu-D-Lac-L-MeLeu-D-Lac-L-MeLeu-D-Lac-L-Pip-D-Lac-OH |  | 89% | 
L-MeLeu-D-Lac-L-MeLeu-D-Lac-L-MeLeu-D-Lac-L-Tic-D-Lac-OBn |  | 89% yield | 
L-MeLeu-D-Lac-L-MeLeu-D-PhLac-OBn |  | 90% yield | 
L-MeLeu-D-PhLac-L-MeLeu-D-Lac-L-MeLeu-D-PhLac-L-Pip-D-Lac-OBn |  | 84% yield | 
L-MeLeu-D-PhLac-L-MeLeu-D-Lac-L-MeLeu-D-PhLac-L-Pip-D-Lac-OH |  | 88% | 
L-MeLeu-D-PhLac-L-MeLeu-D-Lac-L-MeLeu-D-PhLac-L-Tic-D-Lac-OBn |  | 90% yield | 
L-MeLeu-D-PhLac-L-MeLeu-D-Lac-L-MeLeu-D-PhLac-L-Tic-D-Lac-OH |  | 85% | 
L-Pro-D-Lac-L-MeLeu-D-PhLac-L-MeLeu-D-Lac-L-MeLeu-D-PhLac-OBn |  |  | step yield [1]: 90% yield; step yield [2]: 94%
L-Pro-D-Lac-L-MeLeu-D-PhLac-L-MeLeu-D-Lac-L-MeLeu-D-PhLac-OH |  |  | step yield [1]: 95%; step yield [2]: 97%
